Reference: PubChem BioAssay AID2685 (National Center for Advancing Translational Sciences (NCATS), 2010)
The list shows a part of the results. The main result of the screen is listed elsewhere. These columns were measured beside it and carry no call. The list favours compounds with an active or inconclusive main result. Words in brackets tell the shape of the fitted curve; partial curves, single points and poor fits give uncertain potencies.

Test: qHTS Assay for Lipid Storage Modulators in Drosophila S3 Cells;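 as to cell number change: cells counted by Cell Tracker Red CMTPX staining in the red channel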
Conditions: BODIPY lipid droplet fluorescence, 18-24 h; for cell number change: measured here: cell count max response, cells fed with added oleic acid
Method in brief: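 Drosophila S3 cells got compounds at several concentrations plus oleic acid (400 uM solution). Laser-scanning cytometry with 488 nm excitation read lipid droplets at 500-530 nm and cells at 575-640 nm. Percent activity was relative to 20 uM Triacsin C.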

[1] = measured here: lipid fluorescence (Fed channel) AC50, cells fed with added oleic acid
[2] = measured here: cell number channel AC50, cells fed with added oleic acid

SMILES	cell number change [%]	AC50 [1]	AC50 [2]
COc1ccccc1/C=C/C(=O)Nc1cccc(C(C)=O)c1	15.6	4.11 µM [rising, single point]	
CSc1ncccc1C(=O)OCC(=O)Nc1ccc(S(=O)(=O)N2CCCC2)cc1	5.31	2.59 µM [rising, single point]	
CC(C)C[C@H](NC(=O)N1CCn2c1nc1ccccc12)C(=O)N[C@@H](Cc1ccccc1)C(=O)O	14.2		
O=C(CN1C(=O)COc2ccccc21)NCC1CCCO1 (centres undefined)	6.41		
O=C(NC1CCCN(Cc2ccc(Cl)cc2)C1)c1c(F)ccc(F)c1F (centres undefined)	8.14	29.1 µM [rising, single point]	
O=[N+]([O-])c1ccc(-c2nc(NCC3CCCO3)c3ccccc3n2)cc1 (centres undefined)	21	0.461 µM [rising, full curve]	
COC(=O)C1(C)Nc2ccccc2C(=O)N1c1ccccc1OC (centres undefined)	33.4	20.6 µM [rising, single point]	29.1 µM [rising, single point]
C#CCOCCOCCOCCNc1nc(N2CCN(C(=O)CCCCCCCCCCNC(=O)[C@@H](CCC(=O)O)n3cc(CCCCCN)nn3)CC2)nc(N2CCN(C(=O)CCCCCCCCCCNC(=O)[C@H]([C@@H](C)CC)n3cc(CCCCCN)nn3)CC2)n1	-50.9	0.103 µM [falling, full curve, poor fit]	0.116 µM [falling, full curve, poor fit]
CCc1ccc(OC(=O)Cc2ccc(OC)c(S(=O)(=O)N3CCOCC3)c2)cc1	-60.2		29.1 µM [falling, single point]
Cc1cc(OCCCCCNCCO)cc(C)c1Cl	7.1		
COc1cc(/C=N/NC(=O)C2CCN(CC(O)COCc3ccccc3)CC2)cc(OC)c1OC (centres undefined)	-48	18.4 µM [falling, partial curve]	25.9 µM [falling, partial curve, poor fit]
O=C(O)CSc1c(-c2ccccc2)[nH]c2ccccc12	-8.08	6.51 µM [rising, single point]	
COc1cc(CN(C)CC2CCCN(CCc3ccccc3F)C2)cc(Cl)c1OC (centres undefined)	15.4	23.1 µM [rising, single point]	
O=C(CN(c1ccc(F)cc1)S(=O)(=O)c1ccc2c(c1)OCCO2)Nc1ccccc1	122	6.51 µM [rising, single point]	6.51 µM [rising, full curve]
CC(NC1c2ccccc2-c2ccccc21)c1ccccc1 (centres undefined)	33.2	29.1 µM [rising, single point]	
CN(C)c1ncc(S(=O)(=O)c2ccccc2)c(-c2ccccc2Cl)n1	-13.4	20.6 µM [falling, single point]	
CCc1c(C(=O)N2CCN(c3ccccc3F)CC2)[nH]c(C)c1C(C)=O			3.26 µM [rising, single point]
CCO[C@H]1OC(C(=O)NC2CC2)=C[C@@H](C2CCCCC2)[C@@H]1CCCO	4.58	6.51 µM [rising, single point]	
O=C(OCc1ccccc1C(F)(F)F)c1cc([N+](=O)[O-])ccc1N1CCOCC1	34.3		15.8 µM [rising, single point]

In the list so far, these have a nitro group on carbon.
SMILES	cell number change [%]	AC50 [1]	AC50 [2]
O=[N+]([O-])c1ccc(-c2nc(NCC3CCCO3)c3ccccc3n2)cc1 (centres undefined)	21	0.461 µM [rising, full curve]	
O=C(OCc1ccccc1C(F)(F)F)c1cc([N+](=O)[O-])ccc1N1CCOCC1	34.3		15.8 µM [rising, single point]

(continued)

SMILES	cell number change [%]	AC50 [1]	AC50 [2]
O=C(CCc1nnc(CCCCc2ccccc2)o1)N1CCCCC1CCO (centres undefined)	5.29		
O=C(NCc1ccccc1Cl)C(=O)NCC1OCCCN1S(=O)(=O)c1cccs1 (centres undefined)	17.3	6.51 µM [rising, partial curve, poor fit]	
O=C(CSc1ccccc1C(=O)O)NCc1ccccc1	-15.1	0.651 µM [falling, full curve]	
Cc1ccc(Nc2nc(Cl)nc(NC(C)(C)C)n2)cc1	-16.6	29.1 µM [rising, single point]	
COCCn1c(SCc2cc(C(C)=O)ccc2OC)nc2cc(Cl)ccc2c1=O	-4.65	20.6 µM [rising, partial curve, poor fit]	
CCN(C(=O)COC(=O)c1cc([N+](=O)[O-])ccc1N1CCOCC1)c1ccccc1	-16.6	4.11 µM [falling, full curve]	
CS(=O)(=O)N(CC(=O)NCc1ccccc1Cl)Cc1ccccc1	-31	16.4 µM [falling, partial curve]	16.4 µM [falling, single point]
COc1cc(C(=O)NCc2nnc(SCC(=O)c3ccccc3)o2)cc(OC)c1OC	-10.5	29.1 µM [rising, single point]	
CN(CC(=O)N1CCOCC1)S(=O)(=O)c1ccc2ccccc2c1	19.4	29.1 µM [falling, single point]	
CC(=O)c1ccc(NC(=O)C(C)Sc2ccccn2)cc1 (centres undefined)	44.1		23.1 µM [rising, single point]
CSc1nccc(Nc2ccccc2)c1C#N	0.279	5.17 µM [falling, single point]	
CCc1ccc(NC(=O)COC(=O)c2cccs2)cc1	-6.94	0.116 µM [rising, full curve, poor fit]	
CC(=O)c1ccc(NC(=O)CSc2nnc(NC(=O)CN3CCOCC3)s2)cc1	5.21	0.146 µM [falling, full curve, poor fit]	
N=c1c(C(=O)NC2CCCC2)cc2c(=O)n3ccccc3nc2n1CC1CCCO1 (centres undefined)	18.4	5.62 µM [falling, single point]	
CC(=O)Nc1ccc(NC(=O)C2CCCN2C(=O)Nc2cccc(F)c2)cc1 (centres undefined)	-11.8		
COc1ccc(N2C(=O)CSC2c2ccncc2)cc1 (centres undefined)	19.1	16.4 µM [rising, partial curve]	
C/C=C\C=C/C(=O)Nc1cccc(C2=NOC3(C2)C[C@@H](C(N)=O)N(C(=O)CCCCC)C3)c1 (some centres undefined)	30.1	20.6 µM [rising, single point]	25.9 µM [rising, partial curve]
Cc1ccc(C(OCC(O)CN2CCCCC2)c2ccccc2)cc1 (centres undefined)	5.86	6.51 µM [rising, single point]	
